Measurements reported in PMC13156308.
Results are given in words; binding and its absence hold for the method and conditions named. In cells and extracts the contact can be indirect. These calls come from enrichment with a bait or labelling near it, and not all partners need be listed.

By UniProt entry, the sequences of proteins in these tests, tags left out. Where a name states a change or a piece, a line headed by the entry shows the natural chain unless it says otherwise. Chains listed by the source or under a name are the forms on record and can include a tag or linker.
UniProt P97310: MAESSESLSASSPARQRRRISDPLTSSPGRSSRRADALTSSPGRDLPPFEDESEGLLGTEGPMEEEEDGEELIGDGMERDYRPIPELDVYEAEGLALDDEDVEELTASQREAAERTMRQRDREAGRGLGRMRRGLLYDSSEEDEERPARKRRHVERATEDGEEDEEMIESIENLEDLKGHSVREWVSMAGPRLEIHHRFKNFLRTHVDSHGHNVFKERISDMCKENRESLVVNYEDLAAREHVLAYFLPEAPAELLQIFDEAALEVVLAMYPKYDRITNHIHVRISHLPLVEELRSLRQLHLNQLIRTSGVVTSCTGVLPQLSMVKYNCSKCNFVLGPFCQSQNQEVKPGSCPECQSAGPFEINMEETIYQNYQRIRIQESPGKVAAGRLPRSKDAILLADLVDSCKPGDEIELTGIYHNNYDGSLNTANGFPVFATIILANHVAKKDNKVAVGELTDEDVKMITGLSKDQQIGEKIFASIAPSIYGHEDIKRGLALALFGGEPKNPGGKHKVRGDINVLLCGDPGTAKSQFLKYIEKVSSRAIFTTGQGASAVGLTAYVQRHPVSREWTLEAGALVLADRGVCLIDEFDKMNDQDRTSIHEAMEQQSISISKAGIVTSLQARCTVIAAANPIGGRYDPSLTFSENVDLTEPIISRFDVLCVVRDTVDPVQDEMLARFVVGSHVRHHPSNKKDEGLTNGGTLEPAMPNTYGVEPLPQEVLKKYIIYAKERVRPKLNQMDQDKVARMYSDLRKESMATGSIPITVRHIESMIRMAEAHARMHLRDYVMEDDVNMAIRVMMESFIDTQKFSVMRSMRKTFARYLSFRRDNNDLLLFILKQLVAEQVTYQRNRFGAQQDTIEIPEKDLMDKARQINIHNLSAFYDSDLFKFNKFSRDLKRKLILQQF
MCM2-2A-TurboID-3xHA (mouse) (P97310, form named): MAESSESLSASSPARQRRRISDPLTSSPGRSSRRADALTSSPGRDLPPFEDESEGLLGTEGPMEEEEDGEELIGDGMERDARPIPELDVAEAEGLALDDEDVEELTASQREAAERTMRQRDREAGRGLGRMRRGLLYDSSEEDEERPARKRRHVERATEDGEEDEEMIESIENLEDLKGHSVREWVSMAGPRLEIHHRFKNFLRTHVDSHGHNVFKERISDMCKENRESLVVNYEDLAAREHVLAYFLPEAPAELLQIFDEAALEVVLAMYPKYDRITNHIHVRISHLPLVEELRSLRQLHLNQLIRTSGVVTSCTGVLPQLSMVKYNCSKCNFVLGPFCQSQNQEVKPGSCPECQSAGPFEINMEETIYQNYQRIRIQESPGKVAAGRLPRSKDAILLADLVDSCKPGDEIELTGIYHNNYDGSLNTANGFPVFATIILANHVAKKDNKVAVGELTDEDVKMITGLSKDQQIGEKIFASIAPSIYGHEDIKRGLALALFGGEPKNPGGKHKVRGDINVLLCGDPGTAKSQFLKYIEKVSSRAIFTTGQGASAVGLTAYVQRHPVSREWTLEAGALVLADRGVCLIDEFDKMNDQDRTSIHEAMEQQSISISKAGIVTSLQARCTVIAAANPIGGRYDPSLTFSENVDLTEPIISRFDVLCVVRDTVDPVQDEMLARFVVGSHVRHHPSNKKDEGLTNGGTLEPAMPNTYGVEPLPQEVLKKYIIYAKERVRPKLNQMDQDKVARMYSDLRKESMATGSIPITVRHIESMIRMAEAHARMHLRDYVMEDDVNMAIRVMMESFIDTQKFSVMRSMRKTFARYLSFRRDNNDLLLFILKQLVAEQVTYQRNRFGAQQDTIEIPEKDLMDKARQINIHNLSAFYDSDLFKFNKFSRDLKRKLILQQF

T1: POLE4-TurboID (mouse) (UniProt Q9CQ36)
T1 sequence: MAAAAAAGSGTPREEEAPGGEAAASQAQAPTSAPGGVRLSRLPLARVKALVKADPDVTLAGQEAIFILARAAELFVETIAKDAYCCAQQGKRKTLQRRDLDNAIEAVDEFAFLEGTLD

T2: POLE3-TurboID (mouse) (UniProt Q9JKP7)
T2 sequence: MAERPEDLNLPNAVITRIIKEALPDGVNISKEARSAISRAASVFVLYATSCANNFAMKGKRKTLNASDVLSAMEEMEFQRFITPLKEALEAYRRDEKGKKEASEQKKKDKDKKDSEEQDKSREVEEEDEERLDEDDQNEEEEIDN

B1: DNAJC9 (protein, UniProt Q91WN1 1-259)
chain: MGLLELCEQVFGTADLYQVLGVRREASDGEVRRGYHKVSLQVHPDRVEEDQKEDATRRFQILGRVYAVLSDKEQKAVYDEQGTVDEDSAGLNQDRDWDAYWRLLFKKISLEDIQAFEKTYKGSEEELNDIKQAYLDFKGDMDQIMESVLCVQYTDEPRIRNIIQKAIESKEIPAYSAFVKESKQKMNARKRRAQEEAKEAELSRKELGLEEGVDNLKALIQSRQKDRQKEMDSFLAQMEAKYCKPSKGGKRTALKKEKK
B2: ATAD2 (protein, UniProt Q8CDM1 1-1040)
chain: MSLLKMRRHAIHSSDSTSSSSSEDDCFERRTKRNRNRAINRCLPLNFRKDEIRGIYKDRMKIGASLADVDPMQLDTSVRFDSVGGLSSHIAALKEMVVFPLLYPEVFEKFKIQPPRGCLFYGPPGTGKTLVARALANECSRGDKRVAFFMRKGADCLSKWVGESERQLRLLFDQAYQMRPAIIFFDEIDGLAPVRSSRQDQIHSSIVSTLLALMDGLDSRGEIVVIGATNRLDSIDPALRRPGRFDREFLFSLPDKNARKEILKIHTRDWNPKPVDMFLEELAEHCVGYCGADIKSICAEAALCALRRRYPQIYTTSEKLQLDLSSITISAKDFEAALQKIRPASQRAVTSPGQALSAIVKPLLQNTVHRILDALQKVFPHVEVGTNKSLNSDVSCPFLESDLAYSDDDTPSVYENGLSQKENLNFLHLNRNACYQPMSFRPRLLIVGEPGFGQSSHLAPAVIHALEKFTVYTLDIPVLFGISTTSPEEACSQMIREAKRTAPSIVYVPHIHLWWEIVGPTLKATFTTLLQTIPSFAPVLLLATSEKPYSALPEEVQELFTHDYGEIFNVQLPDKEERTKFFEDLILKQASKPPVSQKKAVLQALEVLPVAPPPEPRPLTAEEVKRLEEQEEDTFRELRIFLRNVTHRLAIDKRFRVFTKPVDPDEVPDYVTVIKQPMDLSSVISKIDLHKYLTVKDYLKDIDLICSNALEYNPDRDPGDRLIRHRACALRDTAYAIIKEELDEDFEQLCEEIQESRKKRGCSSSKYAPSYYHVMPKQNSPPVGDKKPDQEQNEKLKVPCTPVACSTPAQLKRKFHKKSKWHVGTKIKRRKISQAKDNSLNAMNSSSRSDTEDSQHTHAEHTEPGNTDESSVEESDKQNRLESNIDLKNNSSSSNIENELEEPKETTEGTELRKDRIVCRGDASASQVTDIPEDSESKEMDFLRMTLARGSQVEQQELISMEQALAILSQPTPSLVLDHKQLTNILKTVVKKSQKYNIFQLENLYAVISQCIYEHRRDYDKTALVQKMEQAVENFNCSRS
B3: DNA polymerase delta subunit 3 (POLD3), mouse (protein, UniProt Q9EQ28 1-462)
chain: MAEQLYLENIDEFVTDQNKIVTYKWLSYTLGVHVNQAKQMLYEYVERKRKENSGAQLHVTYLVSGSLIQNGHSCHKVAVVREDKLEAVKSKLAVTASIHVYSIQKAMLKDSGPLFNTDYDILKSNLQNCSKFSAIQCAAAVPRAPAESPSSRKYEQSNLQAASEAQASELTTNGHGPPASKQASQQPKGIMGMLISKAATKTQDTNKETKPEAREVTSASSAGGKAPGKGSVMSNFFGKAAMNKLKVNLDSEQAVKEEKTVEQPPVSVTEPKLAAPPAQKKSSRKSEPGKVQQKEKSSRGKRVDLSDEEAKETEHLKKKRRRIKLPQSDSSEDEVFEDSPEMYEADSPSPPPVSPPPDPMPKTEPPPVKRSSGETKRRRKRVLKSKTFVDEEGCIVTEKVYESESCTDSEEELKMKPASAHKPPAAAVKREPREERKGPKKGAAALGKANRQVSITGFFQKK
B4: WD repeat and HMG-box DNA-binding protein 1 (WDHD1) (protein, UniProt P59328 1-1117)
chain: MPATQKPMRYGHTEGHTEVCFDDSGSYIVTCGSDGDVRMWEDLDDDDPKSVNVGEKAFSCALKNGKLVTAVSNNTVQVYTFPEGVPDGILTRFTTNANHVVFNGAGNKIAAGSSDFLVKVVDVMDNSQQQTFRGHDAPVLSLSFDPKDIFLASASCDGTVRVWNISDQTCAVSWPVLQKSNDVVNAKSICRLAWQPKAGKLLAVPVEKSVKLYRRETWSNPFDLSDSSISQTLNIVTWSPCGQYLAAGAINGLIVVWNVETKDCMERVKHEKGYAICGLAWHPTCSRICYTDVEGNLGVLENVCDLSGKVSSNKVSSRVEKDYNDLFDGDDTSSAGDFLNDNAVEIPSFSKGIINEDDDNDDIMLAADHDLGDDENSVDVTMLKADLSHKEEGDDDQARSIHNLPLIRPQRPFYDGPMPTPRQKPFQSSSTPLHLSHRFMVWNSVGIIRCYNDDQDSAIDVEFHDTSIHHATHLLNAFNYTMGTLSHEAILLACESADELASKLHCLHFSSWDSSKEWMVDMPQNEDIEAICLGLGWAAAATTALLLRLFTIGGVQKEVFCLPGPVVSMAGHGEQLCIVYHRGTGFDGDQCLGVQLLELGRKKNQVLHGDPLPLTRKSYLTWLGFSAEGTPCYVDSEGCVRMLNRGLGNTWTPVCNIREHCKGKSDHYWVVGIHENPQQLRCIPCKGSRFPPTLPRPAVAILSFKLPYCQTSTEKGQMEEQFWHSVLFHNYLDYLAKNGYDYEESIKNQAVKEQQELLMKMLALSCKLEREFRCVELADLMTQNAVHLAIKYASRSRKLILAQKLSELAAEKAAELAETQSEEEKEEDFREKLNAGYSHTTTEWSRPRVRSQVEDAEDREDTVSEEKPESHNHGQNLFQSANSSDTPALKSGAVFSSSQGWVNPFKVVVSSKEPAVSANSTRSANILDSMNKSSRKSTSLNRMENNEKSPVIKPLTPKPRSKQASAASYFQKRTPQADKTEEVKENPKSSSSDAPAVCLQNSENQRPKTGFQMWLEENRSQILSDNPDISDETDIIKEGMIRFRVLSAEERKAWTNKAKGETASDGAEAKKRKRVVSEICETENQEETVKENLDLSKKQKALNLPANQKLSAFAFKQ
B5: CHRAC1 (protein, UniProt Q9JKP8 1-129)
chain: MADAAVGKEKCGDQRLVSLPLSRIRVIMKSSPEVSSINQEALVLTAKATELFVQYLATCSYRHGSGKAKKALTYSDLASTAEDSETLQFLADILPKKILASKYLKMLKEKREEEEDNEDDGSDLGEALA

Target: T1, POLE4-TurboID (mouse)
Test: proximity labelling; bait-TurboID stably expressed in S-phase-synchronised NIH3T3 cells, 500 uM biotin 1 h, RIPA lysis, streptavidin beads, LC-MS/MS, four replicates; enriched: bait/Control >2, P <0.05

binding, binds:
B1
B2

Target: MCM2-2A-TurboID-3xHA (mouse) (mouse) (UniProt P97310)
Test: as above

binding, binds:
B1
B3
B4
B5

Target: T2, POLE3-TurboID (mouse)
Test: as above

binding, binds:
B1
B2

Target: MCM2-TurboID-3xHA (mouse) (mouse) (UniProt P97310)
Test: as above

binding, binds:
B1
B3
B4
B5
B2
